According to the supplement of paper PMC8728848:
Some of the results follow.

Tests used:
Test in all cases: glycan array binding signal (z-score within array); higher = stronger binding
Conditions in all cases: glycan notation: IUPAC condensed, linker removed
[1] = biological target: Neu5Ac(a2-8)Neu5Ac
Method in brief: (§1)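 Glycan array data were curated from 3228 arrays in the Consortium for Functional Glycomics database and kept only where the protein sequence was available. Glycan names were converted to IUPAC-condensed notation, and columns mapping to the same glycan were averaged. The binding signal is a within-array Z-score, averaged across arrays of the same protein sequence at different concentrations or buffers and across linkers. Negative Z-scores can be read as non-binding.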

[2] = biological target: Neu5Ac(a2-8)Neu5Ac(a2-3)Gal(b1-3)GalNAc(b1-4)[Neu5Ac(a2-3)]Gal(b1-4)Glc
Method in brief: as §1

[3] = biological target: Neu5Ac(a2-8)Neu5Ac(a2-3)Gal(b1-3)GalNAc(b1-4)[Neu5Ac(a2-8)Neu5Ac(a2-3)]Gal(b1-4)Glc
Method in brief: as §1

[4] = biological target: Neu5Ac(a2-8)Neu5Ac(a2-3)Gal(b1-4)Glc
Method in brief: as §1

[5] = biological target: Neu5Ac(a2-8)Neu5Ac(a2-3)Gal(b1-4)GlcNAc
Method in brief: as §1

[6] = biological target: Neu5Ac(a2-8)Neu5Ac(a2-3)[Gal(b1-3)GalNAc(b1-4)]Gal(b1-4)Glc
Method in brief: as §1

[7] = biological target: Neu5Ac(a2-8)Neu5Ac(a2-3)[GalNAc(b1-4)]Gal(b1-4)Glc
Method in brief: as §1

[8] = biological target: Neu5Ac(a2-8)Neu5Ac(a2-8)Neu5Ac
Method in brief: as §1

[9] = biological target: Neu5Ac(a2-8)Neu5Ac(a2-8)Neu5Ac(a2-3)Gal(b1-4)Glc
Method in brief: as §1

[10] = biological target: Neu5Ac(a2-8)Neu5Ac(a2-8)Neu5Ac(a2-3)[Gal(b1-3)GalNAc(b1-4)]Gal(b1-4)Glc
Method in brief: as §1

[11] = biological target: Neu5Ac(a2-8)Neu5Ac(a2-8)Neu5Ac(a2-3)[GalNAc(b1-4)]Gal(b1-4)Glc
Method in brief: as §1

[12] = biological target: Neu5Ac(a2-8)Neu5Ac(a2-8)Neu5Ac(a2-8)Neu5Ac(a2-3)[GalNAc(b1-4)]Gal(b1-4)Glc
Method in brief: as §1

[13] = biological target: Neu5Ac(a2-8)Neu5Gc(a2-3)Gal(b1-4)GlcNAc
Method in brief: as §1

[14] = biological target: Neu5Ac(b2-6)Gal(b1-4)GlcNAc
Method in brief: as §1

[15] = biological target: Neu5Ac(b2-6)GalNAc
Method in brief: as §1

[16] = biological target: Neu5Ac9Ac(a2-3)Gal(b1-3)GlcNAc
Method in brief: as §1

[17] = biological target: Neu5Ac9Ac(a2-3)Gal(b1-4)GlcNAc
Method in brief: as §1

[18] = biological target: Neu5Ac9Ac(a2-6)Gal(b1-4)GlcNAc
Method in brief: as §1

[19] = biological target: Neu5Gc(a2-3)Gal(b1-3)GlcNAc
Method in brief: as §1

[20] = biological target: Neu5Gc(a2-3)Gal(b1-3)[Fuc(a1-4)]GlcNAc
Method in brief: as §1

[21] = biological target: Neu5Gc(a2-3)Gal(b1-4)Glc
Method in brief: as §1

[22] = biological target: Neu5Gc(a2-3)Gal(b1-4)GlcNAc
Method in brief: as §1

[23] = biological target: Neu5Gc(a2-3)Gal(b1-4)GlcNAc(b1-3)Gal(b1-4)GlcNAc(b1-2)Man(a1-3)[Neu5Gc(a2-3)Gal(b1-4)GlcNAc(b1-3)Gal(b1-4)GlcNAc(b1-2)Man(a1-6)]Man(b1-4)GlcNAc(b1-4)GlcNAc
Method in brief: as §1

[24] = biological target: Neu5Gc(a2-3)Gal(b1-4)[Fuc(a1-3)]GlcNAc
Method in brief: as §1

[25] = biological target: Neu5Gc(a2-6)Gal(b1-4)GlcNAc
Method in brief: as §1

[26] = biological target: Neu5Gc(a2-6)GalNAc
Method in brief: as §1

[27] = biological target: Neu5Gc(a2-8)Neu5Ac(a2-3)Gal(b1-4)GlcNAc
Method in brief: as §1

[28] = biological target: Neu5Gc(a2-8)Neu5Gc(a2-3)Gal(b1-4)GlcNAc
Method in brief: as §1

[29] = biological target: Neu5Gc(a2-8)Neu5Gc(a2-3)Gal(b1-4)GlcNAc(b1-3)Gal(b1-4)GlcNAc
Method in brief: as §1

[30] = biological target: Neu5Gc(a2-8)Neu5Gc(a2-6)Gal(b1-4)GlcNAc
Method in brief: as §1

[31] = biological target: Neu5Gc(b2-6)Gal(b1-4)GlcNAc
Method in brief: as §1

B1: B936 (Bifidobacterium sp) (protein)
chain: MKNWKKAIALVASAAALVSVAACGPSNAGGSSDSGKKTVGFVAVGPEGGFRTANEKDIQKAFEDAGFDLTYSPTQNNDQQKQIQAFNKFVNDEVDAIILSSTEDSGWDDSLKKAAEAEIPVFTVDRNVDVKDAEAKKAIVAHIGPSNVWCGEQAAEFVNKNFPDGANGFILEGPAGLSVVKDRGTGWGNKVASNVKVLESQSANWSTDEAKTVTAGLLDKYKSDNPQFIFAQNDEMGLGAAQAVDAAGLKGKVKIITIDGTKNALQALVDGDLSYVIEYNPIFGKETAQAVKDYLDGKTVEKDIEIESKTFDAASAKEALDNNTRAY
- glycan array binding signal (z-score) [1]: -0.555
- glycan array binding signal (z-score) [2]: 0.296
- glycan array binding signal (z-score) [3]: 0.31
- glycan array binding signal (z-score) [4]: -0.062
- glycan array binding signal (z-score) [5]: -0.433
- glycan array binding signal (z-score) [6]: 0.036
- glycan array binding signal (z-score) [7]: -0.488
- glycan array binding signal (z-score) [8]: -0.464
- glycan array binding signal (z-score) [9]: -0.485
- glycan array binding signal (z-score) [10]: -0.252
- glycan array binding signal (z-score) [11]: -0.352
- glycan array binding signal (z-score) [12]: 0.051
- glycan array binding signal (z-score) [13]: -0.646
- glycan array binding signal (z-score) [14]: 0.124
- glycan array binding signal (z-score) [15]: -0.526
- glycan array binding signal (z-score) [16]: -0.521
- glycan array binding signal (z-score) [17]: -0.596
- glycan array binding signal (z-score) [18]: -0.104
- glycan array binding signal (z-score) [19]: -0.499
- glycan array binding signal (z-score) [20]: 0.081
- glycan array binding signal (z-score) [21]: 0.141
- glycan array binding signal (z-score) [22]: -0.84
- glycan array binding signal (z-score) [23]: 0.718
- glycan array binding signal (z-score) [24]: -0.593
- glycan array binding signal (z-score) [25]: -0.019
- glycan array binding signal (z-score) [26]: -0.853
- glycan array binding signal (z-score) [27]: -0.688
- glycan array binding signal (z-score) [28]: -0.498
- glycan array binding signal (z-score) [29]: -0.007
- glycan array binding signal (z-score) [30]: -0.016
- glycan array binding signal (z-score) [31]: -0.393
